At least one structure is not confirmed: it was looked up by name or label, or the drawing left a doubt.
Test system: HDAC
Assay: HDAC fluorimetric assay kit (AK-500, Biomol), HeLa nuclear extract
Assay type: biochemical
Description: HDAC inhibitors were screened using an HDAC fluorimetric assay kit (AK-500, Biomol, Plymouth Meeting, Pa.). […] Each assay was setup as follows: Defrosted all kit components and kept on ice until use. Diluted HeLa nuclear extract 1:29 in Assay Buffer (50 mM Tris/Cl, pH 8.0, 137 mM NaCl, 2.7 mM KCl, 1 mM MgCl2). Prepared dilutions of Trichostatin A (TSA, positive control) and tested compounds in assay buffer (5× of final concentration). Diluted Fluor de LysTM Substrate in assay buffer to 100 uM (50 fold=2× final). Diluted Fluor de LysTM developer concentrate 20-fold (e.g. 50 μl plus 950 μl Assay Buffer) in cold assay buffer. […] Allowed diluted Fluor de LysTM Substrate and the samples in the microtiter plate to equilibrate to assay temperature (e.g. 25 or 37° C. Initiated HDAC reactions by adding diluted substrate (25 μl) to each well and mixing thoroughly. Allowed HDAC reactions to proceed for 1 hour and then stopped them by addition of Fluor de LysTM Developer (50 μl). Incubated plate at room temperature (25° C.) for 10-15 min. Read samples in a microtiter-plate reading fluorimeter capable of excitation at a wavelength in the range 350-380 nm and detection of emitted light in the range 440-460 nm.

Question: Which IC50 does the source give for `CC(C)(C)c1cnc(CSc2cnc(NC(=O)Oc3ccc(OCCCC(=O)NO)cc3)s2)o1` [Compound 28, 4-(4-(hydroxyamino)-4-oxobutoxy)phenyl-5-((5-tert-butyloxazol-2-yl)methylthio)thiazol-2-ylcarbamate] here?
Answer: 100 to 1000 nM
